Source: publication PMC12234153
No constants are given. Whether binding was seen depends on the method and setting. Binding seen in cells or lysates may run through a third protein. Some entries that bind do so weakly or less than the wild type. Blank lines part the entries; values can stand above or below the substance they belong to.

Chains of the proteins cited; added tags and fusions are not shown. Lines headed by an entry give the natural chain unless they say otherwise; changes in a name come on top.
UniProt Q15796: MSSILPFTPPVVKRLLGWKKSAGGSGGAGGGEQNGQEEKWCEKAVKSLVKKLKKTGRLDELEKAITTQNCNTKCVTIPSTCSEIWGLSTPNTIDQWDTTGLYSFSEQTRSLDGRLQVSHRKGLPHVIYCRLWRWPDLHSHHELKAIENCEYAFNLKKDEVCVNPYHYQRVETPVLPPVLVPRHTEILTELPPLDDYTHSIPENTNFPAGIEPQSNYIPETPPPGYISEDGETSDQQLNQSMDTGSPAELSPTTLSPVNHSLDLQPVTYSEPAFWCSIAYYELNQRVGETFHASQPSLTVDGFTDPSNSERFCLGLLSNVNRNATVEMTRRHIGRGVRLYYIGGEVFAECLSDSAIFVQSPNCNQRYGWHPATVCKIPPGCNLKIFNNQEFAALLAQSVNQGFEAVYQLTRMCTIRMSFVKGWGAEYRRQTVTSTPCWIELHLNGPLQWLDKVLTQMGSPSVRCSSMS
UniProt P42227: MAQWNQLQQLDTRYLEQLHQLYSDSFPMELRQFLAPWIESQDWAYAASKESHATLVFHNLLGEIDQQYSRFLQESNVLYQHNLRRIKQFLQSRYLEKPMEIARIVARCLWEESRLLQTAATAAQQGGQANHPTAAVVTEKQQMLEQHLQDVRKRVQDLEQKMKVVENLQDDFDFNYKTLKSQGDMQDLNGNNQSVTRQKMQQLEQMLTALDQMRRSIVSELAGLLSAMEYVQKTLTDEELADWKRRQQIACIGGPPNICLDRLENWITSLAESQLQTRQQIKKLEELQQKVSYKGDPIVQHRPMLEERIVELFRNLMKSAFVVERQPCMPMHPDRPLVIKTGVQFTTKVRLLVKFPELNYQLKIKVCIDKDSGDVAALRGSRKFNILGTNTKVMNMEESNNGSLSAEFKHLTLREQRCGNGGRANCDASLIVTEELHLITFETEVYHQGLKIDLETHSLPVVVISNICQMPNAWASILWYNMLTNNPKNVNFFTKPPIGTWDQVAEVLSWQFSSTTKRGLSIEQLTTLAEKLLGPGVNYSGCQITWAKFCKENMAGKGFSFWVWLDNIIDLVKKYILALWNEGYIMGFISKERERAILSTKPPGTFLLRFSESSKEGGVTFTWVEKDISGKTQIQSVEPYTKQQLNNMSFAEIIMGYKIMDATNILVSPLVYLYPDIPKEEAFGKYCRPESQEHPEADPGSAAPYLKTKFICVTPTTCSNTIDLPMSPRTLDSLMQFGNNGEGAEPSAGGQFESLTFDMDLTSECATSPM
UniProt Q62432: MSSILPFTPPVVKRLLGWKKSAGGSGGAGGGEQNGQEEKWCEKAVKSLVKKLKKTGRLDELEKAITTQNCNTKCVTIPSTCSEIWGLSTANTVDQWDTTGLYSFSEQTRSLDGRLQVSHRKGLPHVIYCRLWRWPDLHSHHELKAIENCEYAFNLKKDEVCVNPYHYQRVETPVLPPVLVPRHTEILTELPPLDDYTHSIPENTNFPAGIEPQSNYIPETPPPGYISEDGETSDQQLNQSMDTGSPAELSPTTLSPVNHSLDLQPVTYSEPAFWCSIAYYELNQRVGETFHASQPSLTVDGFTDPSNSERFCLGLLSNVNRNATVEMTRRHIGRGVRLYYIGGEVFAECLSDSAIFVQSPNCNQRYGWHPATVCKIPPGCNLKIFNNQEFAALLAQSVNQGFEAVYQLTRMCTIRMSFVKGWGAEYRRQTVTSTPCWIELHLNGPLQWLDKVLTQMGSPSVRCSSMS
UniProt Q13485: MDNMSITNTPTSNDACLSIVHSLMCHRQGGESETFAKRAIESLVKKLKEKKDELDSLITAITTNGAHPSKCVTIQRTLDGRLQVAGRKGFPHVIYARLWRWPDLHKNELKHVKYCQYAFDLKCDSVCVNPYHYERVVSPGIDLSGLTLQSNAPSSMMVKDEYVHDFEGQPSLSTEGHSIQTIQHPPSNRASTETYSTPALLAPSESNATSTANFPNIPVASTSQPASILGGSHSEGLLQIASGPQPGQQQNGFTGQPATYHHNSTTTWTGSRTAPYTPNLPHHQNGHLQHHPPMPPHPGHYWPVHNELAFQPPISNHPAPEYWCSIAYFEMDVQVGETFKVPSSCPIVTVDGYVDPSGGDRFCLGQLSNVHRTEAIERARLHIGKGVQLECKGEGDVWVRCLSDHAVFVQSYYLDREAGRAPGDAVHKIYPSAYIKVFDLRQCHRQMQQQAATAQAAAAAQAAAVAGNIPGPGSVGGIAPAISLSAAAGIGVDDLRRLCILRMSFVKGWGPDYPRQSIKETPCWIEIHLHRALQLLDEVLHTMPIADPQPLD
UniProt P40763: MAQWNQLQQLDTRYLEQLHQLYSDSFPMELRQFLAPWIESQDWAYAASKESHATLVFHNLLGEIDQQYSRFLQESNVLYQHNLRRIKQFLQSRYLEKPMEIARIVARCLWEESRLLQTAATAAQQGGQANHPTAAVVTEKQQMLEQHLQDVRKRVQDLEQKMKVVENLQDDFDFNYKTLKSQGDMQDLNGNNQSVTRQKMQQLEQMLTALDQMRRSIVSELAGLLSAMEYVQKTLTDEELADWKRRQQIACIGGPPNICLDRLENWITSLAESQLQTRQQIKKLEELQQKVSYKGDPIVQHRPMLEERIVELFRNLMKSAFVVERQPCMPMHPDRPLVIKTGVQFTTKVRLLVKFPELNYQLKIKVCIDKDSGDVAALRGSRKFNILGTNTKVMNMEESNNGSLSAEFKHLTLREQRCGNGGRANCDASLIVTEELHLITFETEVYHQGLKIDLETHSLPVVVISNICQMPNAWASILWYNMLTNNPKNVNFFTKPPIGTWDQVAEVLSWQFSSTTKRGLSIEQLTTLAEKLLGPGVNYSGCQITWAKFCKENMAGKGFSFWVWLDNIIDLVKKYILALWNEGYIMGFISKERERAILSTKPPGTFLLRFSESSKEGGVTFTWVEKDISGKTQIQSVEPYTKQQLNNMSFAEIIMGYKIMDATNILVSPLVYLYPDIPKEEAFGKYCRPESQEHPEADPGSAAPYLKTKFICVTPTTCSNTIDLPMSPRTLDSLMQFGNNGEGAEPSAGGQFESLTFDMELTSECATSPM

How the values were obtained:
[1] = biological target: SMAD2-HA (wild type) (human) (UniProt Q15796); assay: co-IP; HEK293T cells transfected with HA-tagged SMAD2 and FLAG-tagged STAT3 constructs, untreated or treated with TGFb (3 ng/mL) for 6 hours; anti-HA pull-down of SMAD2, blot with anti-FLAG
[2] = biological target: STAT3-FLAG (wild type) (mouse) (UniProt P42227); assay: co-IP; DHHC7 KO HEK293T cells transfected with WT or catalytically inactive (MUT) DHHC7 and the indicated SMAD2 and STAT3 constructs; anti-FLAG pull-down of STAT3 (Fig. 5C) or SMAD2 (Fig. 5D), blot with anti-HA
[3] = biological target: endogenous SMAD2 (mouse splenocytes) (mouse (endogenous in splenocytes)) (UniProt Q62432); assay: co-IP; WT and APT2 KO mouse splenocytes, without or with TGFb; anti-SMAD2 pull-down, blot with anti-STAT3 (both endogenous)
[4] = biological target: SMAD2-FLAG overexpressed in mouse splenocytes (human) (UniProt Q15796); assay: co-IP; splenocytes of WT and DHHC7 KO mice overexpressing SMAD2-FLAG; anti-FLAG pull-down of SMAD2, blot with anti-STAT3 (endogenous STAT3)
[5] = biological target: SMAD2-FLAG (wild type) (human) (UniProt Q15796); assay: co-IP; HEK293T cells transfected with SMAD2-FLAG, untreated or treated with 25 uM ML349 for 12 hours; anti-FLAG pull-down of SMAD2, blot with anti-STAT3 (endogenous STAT3)
[6] = biological target: SMAD4-FLAG (human) (UniProt Q13485); assay: co-IP; DHHC7 KO HEK293T cells transfected with WT or catalytically inactive (MUT) DHHC7-HA and the indicated SMAD2-HA and SMAD4-FLAG constructs; which protein was precipitated not given
[7] = biological target: SMAD2-FLAG S255A mutant (human) (UniProt Q15796); assay: co-IP; HEK293T cells transfected with WT STAT3-HA and WT or linker-region mutant SMAD2-FLAG; anti-FLAG pull-down of SMAD2, blot with anti-HA
[8] = biological target: SMAD2-FLAG (wild type) (human) (UniProt Q15796); assay: as above
[9] = biological target: SMAD2-FLAG C41S/C81S mutant (human) (UniProt Q15796); assay: co-IP; DHHC7 KO HEK293T cells transfected with WT or catalytically inactive (MUT) DHHC7 and the indicated SMAD2 and STAT3 constructs; anti-FLAG pull-down of STAT3 (Fig. 5C) or SMAD2 (Fig. 5D), blot with anti-HA
[10] = biological target: SMAD2-FLAG (wild type) (human) (UniProt Q15796); assay: as above

Substance: STAT3-FLAG C108S mutant (from UniProt P42227 1-770)
binding [1]: binds

Substance: endogenous STAT3 (HEK293T) (from UniProt P40763 1-770)
binding [5]: binds

Substance: SMAD2-HA C41S/C81S mutant (from UniProt Q15796 1-467)
binding [2]: binds
binding [6]: binds

Substance: STAT3-HA (wild type) (from UniProt P42227 1-770)
binding [7]: binds
binding [8]: binds
binding [9]: binds
binding [10]: binds

Other lines, results leading:

binding [2]: binds
Substance: SMAD2-HA (wild type) (from UniProt Q15796 1-467)

binding [3]: binds
binding [4]: binds
Substance: endogenous STAT3 (mouse splenocytes) (from UniProt P42227 1-770)

binding [1]: binds
Substance: STAT3-FLAG (wild type) (from UniProt P42227 1-770)
